The values that follow come from EP0382538A2 (MERCK & CO. INC., priority 1989, dated 1990).

Where “and” joins values, the source holds several entries; their conditions need not be identical. Equal entries are not always repeated. Where only a bound is given, the exact number is not on record here.

The data set can be described thus: general procedure: Boc solid-phase peptide synthesis; Boc-Thr(Bzl)-O-PAM resin (0.72 mM/g); symmetric anhydrides; HOBt esters for Arg(Tos), Asn, His(Bom); double coupling. The settings on record: whole synthesis, several disulfide bridges, sequence written open.

Regarding “NH₂-Glu-Cys-Glu-Ser-Gly-Pro-Cys-Cys-Arg-Asn-Cys-Lys-Phe-Leu-Lys-Glu-Gly-Thr-Ile-Cys-Lys-Arg-Ala-Arg-Gly-Asp-Asp-Met-Asp-Asp-Tyr-Cys-Asn-Gly-Lys-Thr-Cys-Asp-Cys-Pro-Arg-Asn-Pro-His-Lys-Gly-Pro-Ala-Thr-OH”, the difficulty met entry is “additional couplings of Arg⁹ and Arg²² were performed four times and Ile¹⁹ three times”. Also, the “final HPLC purity” value (analytical RP-HPLC (Vydac C18)) is more than 95%. For the setting “based on 0.25 mM of starting resin, overall”, the isolated yield came out at 4 percent overall yield. Moreover, where the note is “run 1”, the isolated mass is 72 mg and 54 mg.
